From the supplement of paper PMC10849652
This is one part of the list.

By UniProt entry, the sequences of proteins in these tests, tags left out. Where a name states a change or a piece, a line headed by the entry shows the natural chain unless it says otherwise.
UniProt Q6P9F7: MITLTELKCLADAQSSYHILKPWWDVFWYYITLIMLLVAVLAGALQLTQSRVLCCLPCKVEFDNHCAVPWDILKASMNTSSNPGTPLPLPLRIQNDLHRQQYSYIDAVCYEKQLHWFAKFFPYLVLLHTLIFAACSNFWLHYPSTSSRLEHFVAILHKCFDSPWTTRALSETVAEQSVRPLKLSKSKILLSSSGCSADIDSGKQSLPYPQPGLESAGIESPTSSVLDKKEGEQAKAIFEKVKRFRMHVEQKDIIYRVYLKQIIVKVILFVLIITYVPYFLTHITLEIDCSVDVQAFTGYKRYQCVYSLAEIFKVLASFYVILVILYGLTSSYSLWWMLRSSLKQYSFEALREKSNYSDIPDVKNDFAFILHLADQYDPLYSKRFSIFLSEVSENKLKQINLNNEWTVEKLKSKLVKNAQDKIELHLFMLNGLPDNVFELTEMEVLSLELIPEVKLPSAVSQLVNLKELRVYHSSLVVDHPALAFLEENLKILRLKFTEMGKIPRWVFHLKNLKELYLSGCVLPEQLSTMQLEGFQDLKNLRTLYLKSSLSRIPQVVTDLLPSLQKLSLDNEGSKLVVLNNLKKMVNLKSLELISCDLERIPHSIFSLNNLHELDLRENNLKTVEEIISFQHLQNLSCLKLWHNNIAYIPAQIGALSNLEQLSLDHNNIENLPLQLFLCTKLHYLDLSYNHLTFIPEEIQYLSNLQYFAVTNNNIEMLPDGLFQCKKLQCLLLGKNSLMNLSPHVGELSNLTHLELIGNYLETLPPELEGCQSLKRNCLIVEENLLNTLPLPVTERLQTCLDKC
UniProt Q03252: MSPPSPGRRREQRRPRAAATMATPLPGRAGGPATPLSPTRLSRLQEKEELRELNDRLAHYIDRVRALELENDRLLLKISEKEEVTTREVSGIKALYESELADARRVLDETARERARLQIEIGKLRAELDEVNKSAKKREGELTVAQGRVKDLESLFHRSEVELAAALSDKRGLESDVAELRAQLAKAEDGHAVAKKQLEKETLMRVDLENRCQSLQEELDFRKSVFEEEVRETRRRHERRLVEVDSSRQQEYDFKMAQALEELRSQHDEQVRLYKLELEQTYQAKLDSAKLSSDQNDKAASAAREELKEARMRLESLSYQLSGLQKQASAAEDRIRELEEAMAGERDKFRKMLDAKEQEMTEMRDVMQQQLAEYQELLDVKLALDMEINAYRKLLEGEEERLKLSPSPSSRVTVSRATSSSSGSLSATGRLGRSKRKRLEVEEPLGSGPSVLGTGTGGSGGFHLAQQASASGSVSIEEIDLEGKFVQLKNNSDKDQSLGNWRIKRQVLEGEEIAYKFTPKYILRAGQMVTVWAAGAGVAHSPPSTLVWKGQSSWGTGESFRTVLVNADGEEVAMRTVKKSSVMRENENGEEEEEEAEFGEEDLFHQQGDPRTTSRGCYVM
UniProt O95777: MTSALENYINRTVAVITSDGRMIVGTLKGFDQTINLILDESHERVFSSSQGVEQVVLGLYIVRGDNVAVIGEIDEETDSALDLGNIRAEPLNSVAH
UniProt O43766: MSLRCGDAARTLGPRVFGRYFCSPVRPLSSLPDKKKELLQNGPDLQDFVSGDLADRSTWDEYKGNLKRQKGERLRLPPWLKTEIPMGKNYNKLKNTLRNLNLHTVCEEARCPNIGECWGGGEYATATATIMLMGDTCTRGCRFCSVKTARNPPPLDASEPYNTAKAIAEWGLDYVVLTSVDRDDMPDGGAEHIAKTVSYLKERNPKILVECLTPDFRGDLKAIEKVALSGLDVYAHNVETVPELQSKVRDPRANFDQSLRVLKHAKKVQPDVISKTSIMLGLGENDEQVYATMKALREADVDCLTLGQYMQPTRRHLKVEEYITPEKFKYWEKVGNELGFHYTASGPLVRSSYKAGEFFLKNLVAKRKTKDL
UniProt Q7L1W4: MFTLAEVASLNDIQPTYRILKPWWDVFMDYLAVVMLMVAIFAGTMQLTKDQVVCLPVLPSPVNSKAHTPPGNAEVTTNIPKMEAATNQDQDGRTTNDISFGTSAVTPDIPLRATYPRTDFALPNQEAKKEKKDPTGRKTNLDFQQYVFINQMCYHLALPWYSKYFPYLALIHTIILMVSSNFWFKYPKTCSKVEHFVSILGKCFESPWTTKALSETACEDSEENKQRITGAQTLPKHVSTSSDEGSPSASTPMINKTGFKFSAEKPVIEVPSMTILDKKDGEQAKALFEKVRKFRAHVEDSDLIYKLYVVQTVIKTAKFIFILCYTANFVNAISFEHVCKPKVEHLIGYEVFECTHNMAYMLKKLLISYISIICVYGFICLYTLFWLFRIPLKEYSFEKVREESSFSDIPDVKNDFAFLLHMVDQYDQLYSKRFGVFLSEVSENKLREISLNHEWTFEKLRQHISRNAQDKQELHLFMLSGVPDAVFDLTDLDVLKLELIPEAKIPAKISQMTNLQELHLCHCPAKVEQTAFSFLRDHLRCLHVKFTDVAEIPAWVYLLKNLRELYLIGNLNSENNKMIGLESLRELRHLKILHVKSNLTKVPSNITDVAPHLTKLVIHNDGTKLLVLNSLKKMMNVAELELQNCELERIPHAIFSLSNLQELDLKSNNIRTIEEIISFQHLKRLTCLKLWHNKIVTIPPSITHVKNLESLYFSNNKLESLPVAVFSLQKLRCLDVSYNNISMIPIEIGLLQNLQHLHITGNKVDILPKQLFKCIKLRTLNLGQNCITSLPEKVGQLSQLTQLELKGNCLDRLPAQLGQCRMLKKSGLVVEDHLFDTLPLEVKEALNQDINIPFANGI
UniProt P53671: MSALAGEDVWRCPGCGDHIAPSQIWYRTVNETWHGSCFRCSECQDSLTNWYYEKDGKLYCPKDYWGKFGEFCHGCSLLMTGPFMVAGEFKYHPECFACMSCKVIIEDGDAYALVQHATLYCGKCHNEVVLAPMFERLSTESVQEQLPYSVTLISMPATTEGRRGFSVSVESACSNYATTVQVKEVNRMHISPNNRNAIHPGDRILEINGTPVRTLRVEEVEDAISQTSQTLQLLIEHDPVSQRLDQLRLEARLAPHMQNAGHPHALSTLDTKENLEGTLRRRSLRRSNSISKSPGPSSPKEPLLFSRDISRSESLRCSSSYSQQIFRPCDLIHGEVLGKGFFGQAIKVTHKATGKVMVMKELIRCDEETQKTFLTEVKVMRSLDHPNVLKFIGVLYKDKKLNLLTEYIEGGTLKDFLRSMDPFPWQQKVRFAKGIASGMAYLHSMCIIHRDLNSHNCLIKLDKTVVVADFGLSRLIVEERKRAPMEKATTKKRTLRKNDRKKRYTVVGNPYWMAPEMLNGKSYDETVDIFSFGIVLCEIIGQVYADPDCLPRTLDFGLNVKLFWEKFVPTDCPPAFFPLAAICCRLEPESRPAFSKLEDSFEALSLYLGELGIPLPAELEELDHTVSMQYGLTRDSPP
UniProt P62312: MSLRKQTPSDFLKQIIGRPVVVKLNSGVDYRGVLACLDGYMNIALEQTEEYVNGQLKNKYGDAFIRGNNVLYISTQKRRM
UniProt Q96GY3: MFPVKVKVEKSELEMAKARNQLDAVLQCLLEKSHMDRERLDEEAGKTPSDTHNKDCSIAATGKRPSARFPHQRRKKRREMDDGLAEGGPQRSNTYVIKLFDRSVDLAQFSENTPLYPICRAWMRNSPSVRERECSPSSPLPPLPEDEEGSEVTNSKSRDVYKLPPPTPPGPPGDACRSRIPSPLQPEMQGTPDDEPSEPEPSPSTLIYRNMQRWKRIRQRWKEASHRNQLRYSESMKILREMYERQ
UniProt Q6ZN17: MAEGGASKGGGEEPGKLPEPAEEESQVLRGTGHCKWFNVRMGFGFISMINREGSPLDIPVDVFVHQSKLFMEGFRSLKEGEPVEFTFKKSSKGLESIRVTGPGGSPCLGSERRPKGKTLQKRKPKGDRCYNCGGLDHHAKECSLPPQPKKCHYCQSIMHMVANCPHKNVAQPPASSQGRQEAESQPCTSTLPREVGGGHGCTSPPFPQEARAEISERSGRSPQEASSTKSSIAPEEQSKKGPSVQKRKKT
UniProt Q14114: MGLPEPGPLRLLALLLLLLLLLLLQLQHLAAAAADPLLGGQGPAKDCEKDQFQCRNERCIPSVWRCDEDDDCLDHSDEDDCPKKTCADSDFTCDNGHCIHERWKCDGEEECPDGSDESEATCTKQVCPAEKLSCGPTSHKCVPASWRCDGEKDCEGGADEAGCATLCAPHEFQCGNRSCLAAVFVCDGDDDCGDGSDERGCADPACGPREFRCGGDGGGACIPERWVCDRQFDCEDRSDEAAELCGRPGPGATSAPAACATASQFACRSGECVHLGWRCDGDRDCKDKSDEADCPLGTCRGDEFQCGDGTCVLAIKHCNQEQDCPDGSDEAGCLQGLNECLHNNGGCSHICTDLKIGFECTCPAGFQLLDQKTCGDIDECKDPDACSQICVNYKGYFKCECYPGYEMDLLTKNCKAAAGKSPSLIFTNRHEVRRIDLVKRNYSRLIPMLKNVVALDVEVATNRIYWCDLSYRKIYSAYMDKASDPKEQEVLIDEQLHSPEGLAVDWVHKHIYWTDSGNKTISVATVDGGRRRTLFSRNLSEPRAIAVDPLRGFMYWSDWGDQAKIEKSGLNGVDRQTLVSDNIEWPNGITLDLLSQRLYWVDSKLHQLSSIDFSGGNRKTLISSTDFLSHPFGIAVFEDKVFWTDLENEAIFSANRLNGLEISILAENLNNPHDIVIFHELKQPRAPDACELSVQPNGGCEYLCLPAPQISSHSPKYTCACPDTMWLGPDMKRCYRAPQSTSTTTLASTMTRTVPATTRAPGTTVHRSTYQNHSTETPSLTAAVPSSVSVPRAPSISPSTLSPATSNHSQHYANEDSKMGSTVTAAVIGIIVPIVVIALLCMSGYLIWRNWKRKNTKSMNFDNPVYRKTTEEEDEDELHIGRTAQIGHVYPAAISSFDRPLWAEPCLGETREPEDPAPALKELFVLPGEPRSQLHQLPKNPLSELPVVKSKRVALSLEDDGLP
UniProt Q9Y4Y9: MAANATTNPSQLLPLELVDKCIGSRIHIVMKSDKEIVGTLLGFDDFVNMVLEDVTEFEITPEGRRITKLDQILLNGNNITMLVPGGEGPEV
UniProt Q9BQK8: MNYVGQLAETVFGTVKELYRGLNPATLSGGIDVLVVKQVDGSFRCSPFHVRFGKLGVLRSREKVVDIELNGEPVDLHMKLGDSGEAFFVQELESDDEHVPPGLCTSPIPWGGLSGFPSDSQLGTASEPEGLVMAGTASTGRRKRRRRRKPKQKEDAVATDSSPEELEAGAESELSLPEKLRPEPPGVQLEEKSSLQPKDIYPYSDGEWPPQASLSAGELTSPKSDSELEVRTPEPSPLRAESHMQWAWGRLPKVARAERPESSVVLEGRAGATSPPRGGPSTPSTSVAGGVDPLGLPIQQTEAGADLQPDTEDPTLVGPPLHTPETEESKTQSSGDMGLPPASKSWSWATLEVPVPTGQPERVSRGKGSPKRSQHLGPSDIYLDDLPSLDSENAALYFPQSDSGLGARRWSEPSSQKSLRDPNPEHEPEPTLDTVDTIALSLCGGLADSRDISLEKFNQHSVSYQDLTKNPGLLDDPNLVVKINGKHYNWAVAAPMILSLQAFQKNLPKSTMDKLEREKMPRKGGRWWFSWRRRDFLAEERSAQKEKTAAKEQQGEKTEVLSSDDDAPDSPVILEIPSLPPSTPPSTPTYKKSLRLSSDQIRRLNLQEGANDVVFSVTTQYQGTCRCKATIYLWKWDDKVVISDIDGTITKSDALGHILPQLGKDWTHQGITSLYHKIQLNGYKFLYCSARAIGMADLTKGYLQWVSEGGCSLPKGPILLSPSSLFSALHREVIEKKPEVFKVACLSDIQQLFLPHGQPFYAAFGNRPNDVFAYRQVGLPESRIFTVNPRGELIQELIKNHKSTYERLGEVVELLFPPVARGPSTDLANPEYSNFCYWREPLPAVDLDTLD
UniProt Q9UGP4: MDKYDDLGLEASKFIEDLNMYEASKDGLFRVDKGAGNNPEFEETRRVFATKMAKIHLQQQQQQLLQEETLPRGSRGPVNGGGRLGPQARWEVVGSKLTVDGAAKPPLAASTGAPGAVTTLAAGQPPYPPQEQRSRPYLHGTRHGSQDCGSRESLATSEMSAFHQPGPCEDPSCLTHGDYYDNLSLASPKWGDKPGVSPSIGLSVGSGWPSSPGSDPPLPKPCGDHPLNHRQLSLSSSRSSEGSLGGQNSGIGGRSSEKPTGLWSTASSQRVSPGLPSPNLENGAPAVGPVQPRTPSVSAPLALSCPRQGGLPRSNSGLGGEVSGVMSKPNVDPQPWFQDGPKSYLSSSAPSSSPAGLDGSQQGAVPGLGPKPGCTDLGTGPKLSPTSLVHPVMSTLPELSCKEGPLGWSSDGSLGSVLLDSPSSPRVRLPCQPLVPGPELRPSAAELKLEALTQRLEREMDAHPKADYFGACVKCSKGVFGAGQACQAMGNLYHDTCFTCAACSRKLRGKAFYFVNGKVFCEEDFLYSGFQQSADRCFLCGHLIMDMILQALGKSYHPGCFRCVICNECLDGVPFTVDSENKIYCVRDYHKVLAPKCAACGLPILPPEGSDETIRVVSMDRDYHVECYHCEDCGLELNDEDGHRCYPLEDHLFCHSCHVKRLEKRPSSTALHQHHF

Tests used:
Assay in all cases: log2 fold change, soluble protein after heating vs DMSO (PISA); higher = thermal stabilisation; K562 lysate, 10 uM; active = over 0.2 and 3.5 SD of the protein, either way, in both replicates (recomputed)
[1] = compound: C1=CC=C(C=C1)[C@H](COC2=CC3=C(C=C2)NC(=O)N3)NC(=O)C4=CC=CN(C4=O)CC5=CC(=C(C=C5)F)F
In short: (§1)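 Log-two fold change in thermal stability relative to solvent controls is reported from duplicates. For each sample, crude K562 extract from dounce-homogenised pellets in PBS pH 7.4 with 1 mM MgCl2, at 1 mg/mL protein, was treated with 10 μM compound for 30 min. Aliquots heated for 3 min across 48°C-58°C were pooled, brought to 0.5% NP-40 at 4°C and cleared at 21,000xg for 90 min. The supernatant was quantified by TMTpro 16plex LC-MS/MS with channel sums equalised.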

[2] = compound: CC1=C(SC2=C1C(=N[C@H](C3=NN=C(N32)C)CC(=O)N)C4=CC=C(C=C4)Cl)C
In short: as §1

[3] = compound: CC1=C2C(=CC=C1)N=C(N(C2=O)C3=CC=CC=C3C)CN4C=NC5=C(N=CN=C54)N
In short: as §1

[4] = compound: Cc1sc2c(c1C)C(c1ccc(Cl)cc1)=N[C@@H](CC(=O)OC(C)(C)C)c1nnc(C)n1-2
In short: as §1

[5] = compound: c1ccc([C@@H]2C[C@H]2NC2CCNCC2)cc1
In short: as §1

Measured: log2 fold change

LRRC8B (UniProt Q6P9F7)
inactive: [1] -0.028 | [2] -0.02 | [3] -0.219 | [4] 0.076 | [5] -0.022

LMNB2 (UniProt Q03252)
inactive: [1] 0.041 | [2] 0.009 | [3] -0.075 | [4] 0.097 | [5] 0.006

LRRFIP1 (UniProt Q32MZ4)
inactive: [1] 0.015 | [2] 0.013 | [3] -0.031 | [4] -0.043 | [5] -0.032

LRWD1 (UniProt Q9UFC0)
inactive: [1] -0.027 | [2] 0.044 | [3] -0.012 | [4] 0.023 | [5] 0.039

LRCH4 (UniProt O75427)
inactive: [1] 0.045 | [2] -0.035 | [3] 0.004 | [4] -0.038 | [5] 0.029

LSM8 (UniProt O95777)
inactive: [1] -0.057 | [2] -0.012 | [3] 0.017 | [4] -0.004 | [5] -0.029

LIAS (UniProt O43766)
inactive: [1] 0.017 | [2] -0.015 | [3] -0.034 | [4] -0.058 | [5] -0.017

LAS1L (UniProt Q9Y4W2)
inactive: [1] -0.002 | [2] 0 | [3] -0.023 | [4] 0.02 | [5] -0.026

LRRC8D (UniProt Q7L1W4)
inactive: [1] -0.021 | [2] 0.015 | [3] 0.038 | [4] 0.025 | [5] -0.04

LIMK2 isoform 3 (UniProt P53671)
inactive: [1] -0.022 | [2] -0.123 | [3] 0.038 | [4] 0.005 | [5] -0.132

LMAN1 (UniProt P49257)
inactive: [1] 0.027 | [2] 0.005 | [3] 0.039 | [4] 0.025 | [5] 0.015

LSM6 (UniProt P62312)
inactive: [1] 0.044 | [2] 0 | [3] -0.014 | [4] -0.037 | [5] 0.023

LIN37 (UniProt Q96GY3)
inactive: [1] -0.066 | [2] 0.086 | [3] -0.105 | [4] -0.052 | [5] -0.142

LIN28B (UniProt Q6ZN17)
inactive: [1] 0.028 | [2] -0.033 | [3] -0.002 | [4] -0.024 | [5] -0.059

LARS (UniProt Q9P2J5)
inactive: [1] -0.02 | [2] -0.007 | [3] 0.015 | [4] 0.04 | [5] 0.077

LCMT2 (UniProt O60294)
inactive: [1] 0.009 | [2] 0.062 | [3] 0.085 | [4] 0.046 | [5] 0.036

Reprinted from above (2 entries):
LARS (UniProt Q9P2J5)
inactive: [1] -0.02 | [2] -0.007 | [3] 0.015 | [4] 0.04 | [5] 0.077

LCMT2 (UniProt O60294)
inactive: [1] 0.009 | [2] 0.062 | [3] 0.085 | [4] 0.046 | [5] 0.036

Additional results

LSM14B isoform 2 (UniProt Q9BX40)
inactive: [1] 0.073 | [2] 0.023 | [3] -0.001 | [4] 0.058 | [5] 0.007

LRRC8C (UniProt Q8TDW0)
inactive: [1] 0.35 | [2] 0.093 | [3] 0.046 | [4] -0.003 | [5] 0.033

LRP8 (UniProt Q14114)
inactive: [1] 0.09 | [2] 0.082 | [3] -0.21 | [5] 0.053

LSM5 (UniProt Q9Y4Y9)
inactive: [1] -0.004 | [2] -0.088 | [3] 0.106 | [4] 0.148 | [5] 0.116

LMNA (UniProt P02545)
inactive: [1] -0.003 | [2] -0.008 | [3] -0.02 | [4] -0.04 | [5] 0.019

LIN7C (UniProt Q9NUP9)
inactive: [1] -0.033 | [2] 0.029 | [3] 0.005 | [4] -0.059 | [5] 0.028

LRRC59 (UniProt Q96AG4)
inactive: [1] 0.001 | [2] -0.015 | [3] 0.022 | [4] 0.064 | [5] -0.052

LPIN3 isoform 2 (UniProt Q9BQK8)
inactive: [1] -0.018 | [2] 0.091 | [3] 0.06 | [4] -0.001 | [5] 0.134

LIMD1 (UniProt Q9UGP4)
inactive: [1] 0.037 | [2] -0.019 | [3] -0.011 | [4] -0.026 | [5] -0.038
